Assay [1] concerns the target T1, Human B7-H4 protein antigen (coated on ELISA plates) (human) (UniProt Q7Z7D3).
T1 sequence: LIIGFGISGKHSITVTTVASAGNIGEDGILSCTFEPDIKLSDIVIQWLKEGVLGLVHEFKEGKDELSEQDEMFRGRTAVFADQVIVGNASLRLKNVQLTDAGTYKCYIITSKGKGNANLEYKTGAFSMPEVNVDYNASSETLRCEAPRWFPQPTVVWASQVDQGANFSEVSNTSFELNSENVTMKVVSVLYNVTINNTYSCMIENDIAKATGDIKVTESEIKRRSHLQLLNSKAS
Nature of the assay: ELISA, conditioned medium on coated human B7-H4 antigen. (ELISA stands for enzyme-linked immunosorbent assay.)

Amino acid sequences for entries named in this document (tags omitted). A change or cut given only in a name is not applied to a line headed by its entry.
UniProt Q7Z7D3: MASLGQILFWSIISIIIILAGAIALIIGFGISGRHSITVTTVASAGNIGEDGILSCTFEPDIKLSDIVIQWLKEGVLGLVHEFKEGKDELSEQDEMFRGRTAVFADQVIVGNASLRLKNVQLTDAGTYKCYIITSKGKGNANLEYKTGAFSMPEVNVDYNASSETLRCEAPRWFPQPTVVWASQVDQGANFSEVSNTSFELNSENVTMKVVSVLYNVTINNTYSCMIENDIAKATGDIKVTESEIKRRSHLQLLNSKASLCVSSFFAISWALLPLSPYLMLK

Assay [2] concerns the target T1, Human B7-H4 protein antigen (coated on ELISA plates) (human). Nature of the assay: ELISA on coated human B7-H4 antigen, single point and dose response.

No constants are given. Whether binding was seen depends on the method and setting. Some binding calls cover weakened binding; strength is not graded here.

B1: recombinant chimeric anti-B7-H4 antibody 2H9 (2H9 heavy chain / 2H9 light chain, human IgG4 S228P) (antibody, V domains shown)
VH: EVQLVESGGNLVKPGGSLKLSCAASGFTFSNSAMSWVRQTPEKRLEWVATISDGGRYTYYPDNVKGRFTISRDNAKNNLYLQMSHLKSEDTALYYCARDRPHWYFDVWGTGATVTVSS
VL: DIVLTQSPASLAVSLGQRATISCRASESIDNYGISFMHWYQQKPGQPPKLLIYRASNLESGIPARFSGSGSRTDFTLTINPVETDDVATYFCQQSDEGRTFGGGTKLEIKR
notes: tested as CHO conditioned medium; also called 2H9 HC + 2H9 LC
For B1, the binding result in assay [1] and in assay [2] was “binds” each time.

B2: recombinant chimeric anti-B7-H4 antibody 2D1 (2D1 heavy chain / 2D1 light chain, human IgG4 S228P) (antibody, V domains shown)
VH: EVQLVESGGGLVKPGGSLKLSCAASGFTFNSHGMSWVRQTPEKRLDWVATISDGGTYTYYPVNVKGRFTISRDNAKNNLYLQMSHLKSEDTAMYYCARDGGGGAYWGQGTLVTVSA
VL: DVVMTQTPLSLPVSLGDQASISCRSSHSLVHSNGNTYLHWYLQKPGQSPNLLIYIVSNRFSGVPDRFSGSGSGTDFTLKISRVEAEDLGVYFCSQSTHVPPTFGAGTKLELKR
notes: tested as CHO conditioned medium; also called 2D1 HC + 2D1 LC
Turning to B2, the binding result in assay [1] and in assay [2] was “binds” in each case.

Values taken from patent US20140356364A1 (AMPLIMMUNE, published 2014).
